Measurements from publication PMC11649564.
Results are given in words; binding and its absence hold for the method and conditions named.

Chains of the proteins cited; added tags and fusions are not shown. Residues count along the entry.
UniProt Q8BYM5, residues 35-825: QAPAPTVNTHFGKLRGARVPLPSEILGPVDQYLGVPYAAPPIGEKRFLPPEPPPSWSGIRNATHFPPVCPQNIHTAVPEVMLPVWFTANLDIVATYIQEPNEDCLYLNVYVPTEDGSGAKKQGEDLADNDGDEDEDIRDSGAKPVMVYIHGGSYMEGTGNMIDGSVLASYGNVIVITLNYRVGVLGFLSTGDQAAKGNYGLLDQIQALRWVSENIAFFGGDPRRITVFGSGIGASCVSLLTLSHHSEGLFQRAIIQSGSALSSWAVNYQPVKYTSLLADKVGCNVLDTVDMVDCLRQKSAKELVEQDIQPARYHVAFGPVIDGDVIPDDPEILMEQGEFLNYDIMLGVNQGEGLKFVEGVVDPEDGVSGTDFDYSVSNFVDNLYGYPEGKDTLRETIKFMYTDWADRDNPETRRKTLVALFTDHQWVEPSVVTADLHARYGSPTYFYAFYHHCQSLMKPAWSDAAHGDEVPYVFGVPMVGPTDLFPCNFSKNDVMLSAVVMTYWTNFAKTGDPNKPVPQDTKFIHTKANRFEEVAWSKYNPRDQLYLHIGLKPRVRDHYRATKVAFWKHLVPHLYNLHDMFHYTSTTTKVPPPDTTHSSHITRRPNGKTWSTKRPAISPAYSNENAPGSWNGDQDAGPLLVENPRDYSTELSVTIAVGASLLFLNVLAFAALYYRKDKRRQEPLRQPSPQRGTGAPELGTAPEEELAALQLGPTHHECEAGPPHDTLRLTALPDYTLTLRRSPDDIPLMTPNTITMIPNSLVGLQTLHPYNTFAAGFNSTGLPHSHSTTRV

Biological target: T1, Myelin-associated glycoprotein (UniProt P20917)
T1 sequence: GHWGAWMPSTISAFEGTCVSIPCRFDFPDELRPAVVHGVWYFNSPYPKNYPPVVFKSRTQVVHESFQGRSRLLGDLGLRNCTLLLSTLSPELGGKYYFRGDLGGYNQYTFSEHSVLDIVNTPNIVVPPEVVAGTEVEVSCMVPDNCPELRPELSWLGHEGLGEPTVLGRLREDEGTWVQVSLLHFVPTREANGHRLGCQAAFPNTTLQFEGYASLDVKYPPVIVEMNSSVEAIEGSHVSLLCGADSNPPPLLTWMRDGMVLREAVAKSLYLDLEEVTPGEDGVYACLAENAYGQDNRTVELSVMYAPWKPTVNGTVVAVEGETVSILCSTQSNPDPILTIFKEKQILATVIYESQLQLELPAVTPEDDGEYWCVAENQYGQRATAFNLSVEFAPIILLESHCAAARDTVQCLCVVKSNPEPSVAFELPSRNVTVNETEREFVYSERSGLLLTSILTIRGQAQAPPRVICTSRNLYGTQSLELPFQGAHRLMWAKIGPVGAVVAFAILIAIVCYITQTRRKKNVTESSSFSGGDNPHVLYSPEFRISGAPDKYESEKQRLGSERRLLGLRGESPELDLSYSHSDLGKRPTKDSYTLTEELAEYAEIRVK
Experiment: cell aggregation assay; Nlgn3 and MAG overexpressed in HEK293 cells; tests transcellular interaction

binding: no binding
Substance: Neuroligin-3 (from UniProt Q8BYM5 35-825)
